These results are taken from PMC6701944.

By UniProt entry, the sequences of proteins in these tests, tags left out. Where a name states a change or a piece, a line headed by the entry shows the natural chain unless it says otherwise.
UniProt Q9HC16: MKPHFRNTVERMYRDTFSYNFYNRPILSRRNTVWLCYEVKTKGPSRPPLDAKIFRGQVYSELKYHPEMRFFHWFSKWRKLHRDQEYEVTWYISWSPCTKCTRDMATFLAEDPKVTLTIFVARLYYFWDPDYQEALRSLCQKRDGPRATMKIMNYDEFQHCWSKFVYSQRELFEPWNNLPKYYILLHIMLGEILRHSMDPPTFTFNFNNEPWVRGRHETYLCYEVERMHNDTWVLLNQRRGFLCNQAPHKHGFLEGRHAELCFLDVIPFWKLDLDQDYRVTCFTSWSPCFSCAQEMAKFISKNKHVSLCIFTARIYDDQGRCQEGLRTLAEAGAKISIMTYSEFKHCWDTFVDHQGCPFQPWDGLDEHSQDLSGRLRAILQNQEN

Results are given in words; binding and its absence hold for the method and conditions named. In cells and extracts the contact can be indirect. Some entries that bind do so weakly or less than the wild type. For part of these data: Tags and fused reporters may be left off the sequences shown.

The target of one experiment is T1, Flag-USP49 (human) (UniProt Q70CQ1).
T1 sequence: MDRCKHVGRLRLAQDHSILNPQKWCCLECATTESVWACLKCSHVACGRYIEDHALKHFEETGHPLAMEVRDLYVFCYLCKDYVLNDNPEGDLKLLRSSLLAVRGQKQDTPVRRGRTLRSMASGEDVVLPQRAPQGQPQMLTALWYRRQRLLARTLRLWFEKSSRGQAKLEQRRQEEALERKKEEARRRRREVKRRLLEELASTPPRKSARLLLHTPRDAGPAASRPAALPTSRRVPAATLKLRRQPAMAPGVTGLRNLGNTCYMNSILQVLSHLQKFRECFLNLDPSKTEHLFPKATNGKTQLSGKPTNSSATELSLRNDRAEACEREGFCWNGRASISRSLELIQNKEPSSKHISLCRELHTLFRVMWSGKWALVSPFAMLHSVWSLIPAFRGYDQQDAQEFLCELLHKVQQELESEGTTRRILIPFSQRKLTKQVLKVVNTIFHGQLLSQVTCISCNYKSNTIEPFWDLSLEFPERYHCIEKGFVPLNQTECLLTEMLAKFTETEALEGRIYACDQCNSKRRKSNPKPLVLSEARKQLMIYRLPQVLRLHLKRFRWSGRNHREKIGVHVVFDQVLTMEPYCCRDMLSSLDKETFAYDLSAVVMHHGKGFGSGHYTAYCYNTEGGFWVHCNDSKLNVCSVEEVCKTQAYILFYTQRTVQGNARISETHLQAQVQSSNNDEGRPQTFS
In words: co-IP; HEK293T co-transfected with Flag-USP49 and HA-A3G; lysate (150 mM NaCl, 50 mM Tris-HCl pH 7.5, 1 mM EDTA, 1% Triton X-100, 0.5% NP-40) immunoprecipitated with Flag beads, 4 hr at 4°C; immunoblot. (In western blotting, separated proteins are transferred to a membrane and probed.)

The target in the next experiment is T2, HA-USP49 (human) (UniProt Q70CQ1).
T2 sequence: T1 sequence
Put plainly: co-IP; HEK293T co-transfected with HA-USP49 and Flag-A3G; lysate immunoprecipitated with HA beads, then treated with RNase A (20 ug/mL) for 1 hr; immunoblot.

A further experiment has as its target HA-A3G (in Hela) (human) (UniProt Q9HC16). Put plainly: co-IP; Hela cells transfected with HA-A3G (or HA-GFP); lysate immunoprecipitated with HA beads; immunoblot for endogenous USP49.

For the molecule “HA-A3G (in HEK293T) (from UniProt Q9HC16 1-384)”, the binding entry with Flag-USP49 (human) was “binds”. For the molecule Flag-A3G (from UniProt Q9HC16 1-384), in the experiment with HA-USP49 (human), the binding result is “binds”.

B1: endogenous USP49 (enzyme, UniProt Q70CQ1 1-688)
chain: T1 sequence
On to B1, for which, in the experiment with HA-A3G (in Hela) (human), the binding result is on record as “binds”.
